According to PubChem BioAssay AID540256 (National Center for Advancing Translational Sciences (NCATS), 2011):
In all, about 300,000 compounds went through this assay and about 3,700 (1.2%) were called active. The inconclusive results got no clear call from the source; some entries with a clear call stand among them for comparison. Calls come from the whole dose curve; tested in HEK293 cells. Where the call is inconclusive, the potency comes from a doubtful curve fit.
Potency is the fitted concentration of half-maximal effect.

Test: qHTS for Inhibitors of binding or entry into cells for Lassa Virus; note: nearly all actives have a fitted effect of over 50% in size
Conditions: Lassa virus pseudotype entry inhibition, cell reporter; series mostly up to 37.9 µM
In the case of `CN(C)CCCC1(c2ccc(F)cc2)OCc2cc(C#N)ccc21` (stereo unspecified), the Potency is reported as inconclusive: 0.058 µM [activator, full curve, poor fit].
For `Cc1ccc(C2CC(c3cccs3)=NN2C(=O)CCl)cc1` (stereo unspecified), the Potency was inconclusive: 25.1 µM [inhibitor, partial curve, poor fit].
For `O=C(/C=C/c1ccc(Cl)cc1)N1CCN(c2c(Cl)cccc2[N+](=O)[O-])CC1`, the Potency was inconclusive: 0.794 µM [inhibitor, single point].
In the case of `CC(NC(=O)Cn1cc(Br)c([N+](=O)[O-])n1)c1ccccc1` (stereo unspecified), the Potency is reported as inconclusive: 35.5 µM [inhibitor, single point].
For `Cn1c(=O)c2c(nc(N/N=C/c3cccnc3)n2Cc2ccc(F)cc2)n(C)c1=O`, the Potency was inconclusive: 4.47 µM [activator, partial curve].
With `CCOc1ccc(C(=O)NC(=S)Nc2ccc(N3CCCCC3)cc2)cc1[N+](=O)[O-]` the Potency was inconclusive: 29.1 µM [inhibitor, single point].
For `CC1=CC2=NC(=O)/C(=C\c3cccn3CCOc3ccc(C)c(C)c3)C(=N)N2O1`, the Potency was inconclusive: 11.2 µM [inhibitor, single point].
In the case of `Fc1ccc(-n2nnnc2-c2cnc(-c3cccs3)nc2C(F)(F)F)cc1`, the Potency is reported as inconclusive: 29.1 µM [inhibitor, single point].
With `O=C(O)COc1ccccc1/C=N/NC(=O)c1ccc(F)cc1` the Potency was “inactive”.
With `Cc1cccc(NC(=O)c2ccc(S(=O)(=O)N3CCOCC3)cc2)c1C` the Potency was “inactive”.
For `Cc1ccccc1/C=N/N=C1/NC(=O)CCS1`, the Potency was “inactive”.
With `Nn1nnc2ccccc21` the Potency was “inactive”.
With `CS(=O)(=O)NCc1nnc2n1-c1ccc(Cl)cc1C(c1ccccc1)=NC2` the Potency was inconclusive: 0.0052 µM [inhibitor, full curve, poor fit].
In the case of `COc1ccccc1C1=NC(c2ccc(F)cc2)N=C1C` (stereo unspecified), the Potency is reported as inconclusive: 22.4 µM [inhibitor, single point].
With `COc1ccccc1-c1cc2nc(C)c(CCC(=O)NCCc3ccc(SC)cc3)c(C)n2n1` the Potency was “inactive”.
For `Cc1cc(C)c2nc(N3CCC(C(=O)NCCCN4CCCCC4)CC3)sc2c1`, the Potency was inconclusive: 18.3 µM [inhibitor, single point].
In the case of `CC(C)(C)C1CCc2c(sc(NC(=O)c3cccs3)c2C(=O)N2CCCCC2)C1` (stereo unspecified), the Potency is reported as inconclusive: 35.5 µM [inhibitor, single point].
With `Cc1cccc(-n2ncc3c(N4CCCC4)ncnc32)c1` the Potency was inconclusive: 29.1 µM [inhibitor, single point].
For `Cc1cc(-c2ccc(Cl)cc2)n2nc(N)nc2n1`, the Potency was “inactive”.
For `CCOC(=O)C1=C(C)NC(=O)CC1c1ccccc1OC` (stereo unspecified), the Potency was inconclusive: 6.31 µM [inhibitor, single point].
For `Nn1c(Cc2cccc3ccccc23)nnc1SCCOc1ccc(F)cc1`, the Potency was inconclusive: 2.59 µM [inhibitor, partial curve, poor fit].
In the case of `S=c1[nH]nc(-c2cc(-c3ccccc3)n[nH]2)n1/N=C/c1ccc(Cl)cc1`, the Potency is reported as inconclusive: 7.94 µM [inhibitor, partial curve].
For `COc1ccc(OC)c(C(c2nnnn2C2CCCC2)N2CCN(c3ccc(F)cc3)CC2)c1` (stereo unspecified), the Potency was inconclusive: 14.1 µM [inhibitor, single point].
For `O=c1c2ccccc2nnn1CSc1nc2sc3c(c2c(=O)n1CC1CCCO1)CCC3` (stereo unspecified), the Potency was inconclusive: 20.6 µM [inhibitor, partial curve, poor fit].
For `COc1ccc(OC)c(CCNC(=O)Cn2ccc3cc(S(=O)(=O)N4CCCCC4)ccc32)c1`, the Potency was inconclusive: 1 µM [inhibitor, partial curve, poor fit].
With `c1cnc2nc3c4ccccc4c4ccccc4c3nc2c1` the Potency was inconclusive: 6.31 µM [activator, single point].
For `CCn1ncc(Br)c1C(=O)Nc1ccc(Cl)cn1`, the Potency was “inactive”.
With `Cc1cnccc1CN(C)Cc1cn(C)nc1-c1cccc(Cl)c1` the Potency was inconclusive: 15.8 µM [inhibitor, single point].
For `Cc1ccc(S(=O)(=O)Nc2nc(-c3ccc(F)cc3)cs2)cc1`, the Potency was inconclusive: 12.6 µM [activator, partial curve, poor fit].
With `COc1ccc(-c2c(-c3ccc(O)cc3O)n[nH]c2C)cc1OC` the Potency was inconclusive: 14.6 µM [inhibitor, partial curve].
For `CC(C)(Oc1ccc(Cl)cc1)C(=O)OCC(=O)NCCc1ccccc1`, the Potency was “inactive”.
With `CC(=O)c1c(C)[nH]c(C(=O)CSc2nnc(-c3ccco3)o2)c1C` the Potency was inconclusive: 10 µM [inhibitor, partial curve, poor fit].
In the case of `COc1ccc(CN=C2Nc3ccccc3CS2)cc1`, the Potency is reported as inconclusive: 29.1 µM [inhibitor, single point].
In the case of `COc1ccc(C2=NOC(C(=O)NC3CCCCC3)C2)cc1OC` (stereo unspecified), the Potency is reported as “inactive”.
For `O=C(OCn1ncc(Cl)c(Cl)c1=O)c1ccc(C(F)(F)F)cc1`, the Potency was inconclusive: 23.1 µM [inhibitor, single point].
For `CCOC(=O)c1ccc(-c2nnc(-c3ccc(Cl)cc3Cl)o2)cc1`, the Potency was inconclusive: 8.2 µM [activator, partial curve].
In the case of `COc1ccc2oc(=O)c(C(=O)Nc3cccc(C(=O)O)c3)cc2c1`, the Potency is reported as “inactive”.
For `O=C(COC(=O)c1ccc(S(=O)(=O)NCc2ccco2)cc1)Nc1ccccc1OC(F)F`, the Potency was “inactive”.
With `CC1=NN(c2ccccc2)C(=O)/C1=C\c1cc(C)n(C)c1C` the Potency was “inactive”.
With `Cc1cc(N2CCN(C)CC2)nc2ccc(NC(=S)N3CCN(c4ccccn4)CC3)cc12` the Potency was “inactive”.
For `Cc1cccc(NC(=O)COc2coc(CN3CCN(c4ccccc4)CC3)cc2=O)c1`, the Potency was “inactive”.
In the case of `COc1cccc(CNC(=O)C2CCN(Cc3cc4ccccc4n3Cc3ccc(C)cc3)CC2)c1`, the Potency is reported as inconclusive: 8.91 µM [inhibitor, single point].
In the case of `CC(C)c1nc2oc3c(NCC4CCCO4)ncnc3c2c2c1CCC2` (stereo unspecified), the Potency is reported as inconclusive: 12.6 µM [inhibitor, partial curve, poor fit].
In the case of `CCNC(=O)/C(C#N)=C/c1c(N2CCCCCC2)nc2c(C)cccn2c1=O`, the Potency is reported as active: 8.91 µM.
In the case of `Cc1cc(C(=O)COC(=O)c2ccccc2O)c(C)n1Cc1cccs1`, the Potency is reported as active: 0.326 µM.
With `O=C(COC(=O)Cc1cccc(F)c1)NC(=O)NC1CCCCC1` the Potency was “inactive”.
With `COc1ccc(OCc2cccc(C(=O)Nn3cc([N+](=O)[O-])cn3)c2)cc1` the Potency was inconclusive: 5.8 µM [inhibitor, full curve, poor fit].
In the case of `CC(C)(C)CN1CCC(Oc2cccc(C(=O)N3CCNC(=O)C3(C)C)c2)CC1`, the Potency is reported as inconclusive: 11.2 µM [activator, partial curve, poor fit].
For `CCOc1ccc(CC2c3cc(OCC)c(OCC)cc3CCN2C(=O)c2cc(OC)c(OC)c(OC)c2)cc1OCC` (stereo unspecified), the Potency was active: 2.06 µM.
For `O=c1[nH]cnc2c1c(-c1ccccc1)cn2-c1ccc(Br)cc1`, the Potency was inconclusive: 11.2 µM [inhibitor, single point].
With `CC1C=CCCC12C(=O)NC(=O)NC2=O` (stereo unspecified) the Potency was “inactive”.
In the case of `CCOC(=O)c1ccc(COc2nc3ccccc3nc2-c2ccccc2NC(C)=O)o1`, the Potency is reported as inconclusive: 35.5 µM [inhibitor, single point].
For `O=C(Nc1ccc(F)cc1F)c1ccc2c(c1)CCN2S(=O)(=O)c1ccc(Cl)cc1`, the Potency was inconclusive: 31.6 µM [inhibitor, partial curve, poor fit].
For `O=C(Nc1ccccc1Cl)Nc1ccccc1Cl`, the Potency was “inactive”.
For `COc1ccc(C(=O)NC(=S)Nc2ccc(N3CCOCC3)cc2)cc1Cl`, the Potency was inconclusive: 35.5 µM [inhibitor, single point].
With `Cc1ccc(NC(=O)Cn2c(=O)ccc3cc(S(=O)(=O)N4CCC(C)CC4)ccc32)c(C)c1` the Potency was inconclusive: 3.16 µM [inhibitor, single point].
In the case of `COC(=O)c1sccc1NC(=S)N1CCN(c2cc(C)ccc2C)CC1`, the Potency is reported as inconclusive: 6.31 µM [inhibitor, single point].
For `O=C(CSc1nnc(-c2ccco2)n1-c1ccccc1)NCC1CCCO1` (stereo unspecified), the Potency was “inactive”.
In the case of `Cc1c(Cl)cccc1NC(=O)Nc1ccn(C)n1`, the Potency is reported as inconclusive: 12.6 µM [activator, single point].
With `CCCc1nc2oc3c(NCCN(C)C)ncnc3c2c2c1CCCC2` the Potency was active: 16.4 µM.
For `NC(=S)N=Nc1c(O)[nH]c2cc(F)c(F)cc12`, the Potency was “inactive”.
In the case of `Cc1cccc2sc(NC(=O)C3CCCO3)nc12` (stereo unspecified), the Potency is reported as “inactive”.
In the case of `Cc1ccc(C(=O)Nc2ccccc2N2CCN(C(=O)C(C)C)CC2)cc1C`, the Potency is reported as inconclusive: 8.2 µM [inhibitor, partial curve].
In the case of `CN(C(=O)CSc1nc2ccccc2o1)C1CCCCC1`, the Potency is reported as inconclusive: 14.1 µM [inhibitor, single point].
In the case of `CCn1nc(C)c(CCN(C)C(=O)Nc2cc(Cl)ccc2C)c1C`, the Potency is reported as “inactive”.
With `CCC1C(=O)NCCN1C(=O)c1ccc2nc(Cc3cccc(Cl)c3)oc2c1` (stereo unspecified) the Potency was inconclusive: 1.26 µM [inhibitor, single point].
For `CC(C)C1C(c2ccccc2)N(C)C(c2ccccc2)CC1(O)c1ccccc1` (stereo unspecified), the Potency was inconclusive: 16.4 µM [inhibitor, single point].
With `OCCCNc1nc(-c2ccccc2)c2cc(Br)ccc2n1` the Potency was “inactive”.
With `COc1ccc(OC)c(NC(=O)c2cnc(Nc3ccccc3OC)c3ccccc23)c1` the Potency was inconclusive: 7.31 µM [inhibitor, partial curve, poor fit].
For `Nc1c(N(Cc2ccccc2)C(=O)COc2cccc(Cl)c2)c(=O)[nH]c(=O)n1Cc1ccccc1`, the Potency was “inactive”.
For `Cc1nc(-c2ccccc2)sc1CCNS(=O)(=O)c1ccc(Br)cc1`, the Potency was “inactive”.
